Series [1] can be described thus: Body weight and heart weight in rat myocardial ischemia model. The conditions noted are these: 3.0 mg/kg single i.v.; day 14. Format: in vivo. The method, then:
Dissection was performed after the completion of the echocardiography at day 14 after the administration of the test substance. For dissection, all of the blood was collected from the abdominal aorta, and the rats were euthanized under isoflurane anesthesia; thereafter, the heart was removed and weighed. After measuring the heart weight, the infarct area, including the left and right ventricles, was divided into three parts along the short axis.

Series [2] can be described thus: Body weight and heart and lung weights in J2N-k hamsters. Format: in vivo, hamster. The conditions noted are these: at dissection. How it is done:
Dissection was performed as follows. After all of the blood was collected from the abdominal aorta, and the hamsters were euthanized under isoflurane anesthesia, the heart and lungs were removed and weighed. After the weights thereof were measured, the removed parts, including the left and right ventricles, were divided into three parts; i.e., apical, middle, and basal parts, at intervals of about 2 mm along the short axis.
Tables 26 and 27 show the body weight change at the time of grouping and at the time of dissection, and the weights of heart and lung at the time of dissection.

For the compound `O=C(O)COc1cccc2c1CCC=C2CCO/N=C(\c1ccccc1)c1cccnc1` [Compound (A), ({5-[2-({[(1E)-phenyl(pyridin-3-yl)methylene]amino}oxy)ethyl]-7,8-dihydronaphthalen-1-yl}oxy)acetic acid], in series [1], the “Heart weight per 100 g of body weight” value turned out to be 0.3267 ± 0.0235 g and the “Total weight of isolated heart” value amounted to 1.3312 ± 0.1827 g. Also, in series [2] (3.0 mg/kg i.v. once/2 weeks), the “Tissue weight per 100 g of the body weight (g) Heart” value was found to be 0.3475 ± 0.0165 g. Moreover, the “Tissue weight per 100 g of the body weight (g) Heart” value in series [2] (3.0 mg/kg p.o. twice/day) was 0.3404 ± 0.0032 g.

Source of the values: US12569437B2, “Disease-site-specific liposomal formulation” (Osaka University, priority 2017, dated 2026).
